Some entries share one result that the patent states for a list of compounds.
System: primary hippocampal neuronal cells
Test: Hippocampal anoxia-reoxygenation cell death assay (neuronal ischemia stress assay)
Type: cell-based, mouse
Conditions: at concentrations ranging from 1 to 100 micromolar

| Structure (SMILES) | protection against stressor-induced cell death, % of the cells tested |
| --- | --- |
| CC1(O)C2OC(=O)C(O)=C2Sc2nc3ccccc3n21 (stereo not shown) [1,4-Dihydroxy-4-methyl-3a,4-dihydro-3-oxa-10-thia-4a,9-diaza-cyclopenta[b]fluoren-2-one] | at least 40% |
| CCOC(=O)C1(C[S+]([O-])Cc2ccco2)OC(=O)C(O)=C1S(=O)(=O)Cc1ccco1 (stereo not shown) [2-(Furan-2-ylmethanesulfinylmethyl)-3-(furan-2-ylmethanesulfonyl)-4-hydroxy-5-oxo-2,5-dihydro-furan-2-carboxylic acid ethyl ester] | at least 40% |
| COC(=O)C1(CSc2nc3ccccc3[nH]2)OC(=O)C(O)=C1Sc1nc2ccccc2[nH]1 (stereo not shown) [3-(1H-Benzoimidazol-2-ylsulfanyl)-2-(1H-benzoimidazol-2-ylsulfanylmethyl)-4-hydroxy-5-oxo-2,5-dihydro-furan-2-carboxylic acid methyl ester] | at least 40% |
| O=C1OC(CSc2nc3ccccc3[nH]2)(C(=O)O)C(Sc2nc3ccccc3[nH]2)=C1O (stereo not shown) [3-(1H-Benzoimidazol-2-ylsulfanyl)-2-(1H-benzoimidazol-2-ylsulfanylmethyl)-4-hydroxy-5-oxo-2,5-dihydro-furan-2-carboxylic acid] | at least 40% |
| CCOC(=O)C1(C(=O)OCC)OC(=O)C(O)=C1Sc1nc2ccccc2[nH]1 [3-(1H-Benzoimidazol-2-ylsulfanyl)-4-hydroxy-5-oxo-5H-furan-2,2-dicarboxylic acid diethyl ester] | at least 40% |
| CCOC(=O)C1(CSCc2ccc(Cl)cc2Cl)OC(=O)C(O)=C1SCc1ccc(Cl)cc1Cl (stereo not shown) [3-(2,4-Dichloro-benzylsulfanyl)-2-(2,4-dichloro-benzylsulfanylmethyl)-4-hydroxy-5-oxo-2,5-dihydro-furan-2-carboxylic acid ethyl ester] | at least 40% |
| CCOC(=O)C1(CSCCN(CC)CC)OC(=O)C(O)=C1SCCN(CC)CC (stereo not shown) [3-(2-Diethylamino-ethylsulfanyl)-2-(2-diethylamino-ethylsulfanylmethyl)-4-hydroxy-5-oxo-2,5-dihydro-furan-2-carboxylic acid ethyl ester] | at least 40% |
| CCOC(=O)C1(CSCCN(C)C)OC(=O)C(O)=C1SCCN(C)C.Cl (stereo not shown) [3-(2-Dimethylamino-ethylsulfanyl)-2-(2-dimethylamino-ethylsulfanylmethyl)-4-hydroxy-5-oxo-2,5-dihydro-furan-2-carboxylic acid ethyl ester, hydrochloride salt] | at least 40% |
| Nc1nnc(SCC2(C(=O)O)OC(=O)C(O)=C2Sc2nnc(N)s2)s1 (stereo not shown) [3-(5-Amino-[1,3,4]thiadiazol-2-ylsulfanyl)-2-(5-amino-[1,3,4]thiadiazol-2-ylsulfanylmethyl)-4-hydroxy-5-oxo-2,5-dihydro-furan-2-carboxylic acid] | at least 40% |
| CCOC(=O)C1(CSc2nc3ccccc3o2)OC(=O)C(O)=C1Sc1nc2ccccc2o1 (stereo not shown) [3-(Benzooxazol-2-ylsulfanyl)-2-(benzooxazol-2-ylsulfanylmethyl)-4-hydroxy-5-oxo-2,5-dihydro-furan-2-carboxylic acid ethyl ester] | at least 40% |
| CCOC(=O)C1(CSc2nc3ccccc3s2)OC(=O)C(O)=C1Sc1nc2ccccc2s1 (stereo not shown) [3-(Benzothiazol-2-ylsulfanyl)-2-(benzothiazol-2-ylsulfanylmethyl)-4-hydroxy-5-oxo-2,5-dihydro-furan-2-carboxylic acid ethyl ester] | at least 40% |
| O=C1OC(C(=O)O)C(Sc2nc3ccccc3s2)=C1O (stereo not shown) [3-(Benzothiazol-2-ylsulfanyl)-4-hydroxy-5-oxo-2,5-dihydro-furan-2-carboxylic acid] | at least 40% |
| CCOC(=O)C1(CS(=O)(=O)Cc2ccco2)OC(=O)C(O)=C1S(=O)(=O)Cc1ccco1 (stereo not shown) [3-(Furan-2-ylmethanesulfonyl)-2-(furan-2-ylmethanesulfonylmethyl)-4-hydroxy-5-oxo-2,5-dihydro-furan-2-carboxylic acid ethyl ester] | at least 40% |
| CCOC(=O)C1OC(=O)C(O)=C1SCc1ccccc1 (stereo not shown) [3-Benzylsulfanyl-4-hydroxy-5-oxo-2,5-dihydro-furan-2-carboxylic acid ethyl ester] | at least 40% |
| CCCCSCC1(C(=O)OCC)OC(=O)C(O)=C1SCCCC (stereo not shown) [3-Butylsulfanyl-2-butylsulfanylmethyl-4-hydroxy-5-oxo-2,5-dihydro-furan-2-carboxylic acid ethyl ester] | at least 40% |
| CCOC(=O)C1(CSC2CCCCC2)OC(=O)C(O)=C1SC1CCCCC1 (stereo not shown) [3-Cyclohexylsulfanyl-2-cyclohexylsulfanylmethyl-4-hydroxy-5-oxo-2,5-dihydro-furan-2-carboxylic acid ethyl ester] | at least 40% |

| Structure (SMILES) | protection against stressor-induced cell death, % of the cells tested |
| --- | --- |
| CCOC(=O)C1(CSC2CCCC2)OC(=O)C(O)=C1SC1CCCC1 (stereo not shown) [3-Cyclopentylsulfanyl-2-cyclopentylsulfanylmethyl-4-hydroxy-5-oxo-2,5-dihydro-furan-2-carboxylic acid ethyl ester] | at least 40% |
| CCOC(=O)C12CSC(C)C(C)SC1=C(O)C(=O)O2 (stereo not shown) [3-Hydroxy-5,6-dimethyl-2-oxo-5,6-dihydro-2H-1-oxa-4,7-dithia-azulene-8a-carboxylic acid ethyl ester] | at least 40% |
| CCOC(=O)C1(CSc2ccc(C=CC(=O)O)cc2)OC(=O)C(O)=C1Sc1ccc(C=CC(=O)O)cc1 (stereo not shown) [3-[4-(2-Carboxy-vinyl)-phenylsulfanyl]-2-[4-(2-carboxy-vinyl)-phenylsulfanylmethyl]-4-hydroxy-5-oxo-2,5-dihydro-furan-2-carboxylic acid ethyl ester] | at least 40% |
| CN1CCN(C(=O)C2(CSc3nc4ccccc4[nH]3)OC(=O)C(O)=C2Sc2nc3ccccc3[nH]2)CC1 (stereo not shown) [4-(1H-Benzoimidazol-2-ylsulfanyl)-5-(1H-benzoimidazol-2-ylsulfanylmethyl)-3-hydroxy-5-(4-methyl-piperazine-1-carbonyl)-5H-furan-2-one] | at least 40% |
| O=C1OC(CO)(CSc2nc3ccccc3[nH]2)C(Sc2nc3ccccc3[nH]2)=C1O (stereo not shown) [4-(1H-Benzoimidazol-2-ylsulfanyl)-5-(1H-benzoimidazol-2-ylsulfanylmethyl)-3-hydroxy-5-hydroxymethyl-5H-furan-2-one] | at least 40% |
| CCOC(=O)C1(CSCc2ccco2)OC(=O)C(OC(=O)C(C)(C)C)=C1SCc1ccco1 (stereo not shown) [4-(2,2-Dimethyl-propionyloxy)-3-(furan-2-ylmethylsulfanyl)-2-(furan-2-ylmethylsulfanylmethyl)-5-oxo-2,5-dihydro-furan-2-carboxylic acid ethyl ester] | at least 40% |
| CCOC(=O)CSCC1(C(=O)OCC)OC(=O)C(OC(=O)C(C)(C)C)=C1SCC(=O)OCC (stereo not shown) [4-(2,2-Dimethyl-propionyloxy)-3-ethoxycarbonylmethylsulfanyl-2-ethoxycarbonylmethylsulfanylmethyl-5-oxo-2,5-dihydro-furan-2-carboxylic acid ethyl ester] | at least 40% |
| O=C1OC(CO)(CSc2nc3ccccc3s2)C(Sc2nc3ccccc3s2)=C1O (stereo not shown) [4-(Benzothiazol-2-ylsulfanyl)-5-(benzothiazol-2-ylsulfanylmethyl)-3-hydroxy-5-hydroxymethyl-5H-furan-2-one] | at least 40% |
| O=C1OC(CO)(CSCc2ccco2)C(SCc2ccco2)=C1O (stereo not shown) [4-(Furan-2-ylmethylsulfanyl)-5-(furan-2-ylmethylsulfanylmethyl)-3-hydroxy-5-hydroxymethyl-5H-furan-2-one] | at least 40% |
| CCOC(=O)C1(CSc2ncc[nH]2)OC(=O)C(O)=C1Sc1ncc[nH]1 (stereo not shown) [4-Hydroxy-3-(1H-imidazol-2-ylsulfanyl)-2-(1H-imidazol-2-ylsulfanylmethyl)-5-oxo-2,5-dihydro-furan-2-carboxylic acid ethyl ester] | at least 40% |
| CCOC(=O)C1(CSCCC(=O)OC)OC(=O)C(O)=C1SCCC(=O)OC (stereo not shown) [4-Hydroxy-3-(2-methoxycarbonyl-ethylsulfanyl)-2-(2-methoxycarbonyl-ethylsulfanylmethyl)-5-oxo-2,5-dihydro-furan-2-carboxylic acid ethyl ester] | at least 40% |
| CCOC(=O)C1(CSCc2ccc(OC)cc2)OC(=O)C(O)=C1SCc1ccc(OC)cc1 (stereo not shown) [4-Hydroxy-3-(4-methoxy-benzylsulfanyl)-2-(4-methoxy-benzylsulfanylmethyl)-5-oxo-2,5-dihydro-furan-2-carboxylic acid ethyl ester] | at least 40% |
| CCOC(=O)C1(CSc2ccc(OC)cc2)OC(=O)C(O)=C1Sc1ccc(OC)cc1 (stereo not shown) [4-Hydroxy-3-(4-methoxy-phenylsulfanyl)-2-(4-methoxy-phenylsulfanylmethyl)-5-oxo-2,5-dihydro-furan-2-carboxylic acid ethyl ester] | at least 40% |
| Cc1ccc2[nH]c(SC3=C(O)C(=O)OC3C(=O)OC3CC(C)CCC3C(C)C)nc2c1 (stereo not shown) [4-Hydroxy-3-(5-methyl-1H-benzoimidazol-2-ylsulfanyl)-5-oxo-2,5-dihydro-furan-2-carboxylic acid 2-isopropyl-5-methyl-cyclohexyl ester] | at least 40% |
| CCOC(=O)C1(CSCC(=O)OC)OC(=O)C(O)=C1SCC(=O)OC (stereo not shown) [4-Hydroxy-3-methoxycarbonylmethylsulfanyl-2-methoxycarbonylmethylsulfanylmethyl-5-oxo-2,5-dihydro-furan-2-carboxylic acid ethyl ester] | at least 40% |
